Measurements published in patent publication US20260109748A1.
Results are given in words; binding and its absence hold for the method and conditions named. Some results given as binding are weak or reduced against the parent protein; the word gives no strength.

The chains behind the UniProt entries cited, without tags or fusion partners. Where a name states a change or a piece, a line headed by the entry shows the natural chain unless it says otherwise.
UniProt Q8WTT0: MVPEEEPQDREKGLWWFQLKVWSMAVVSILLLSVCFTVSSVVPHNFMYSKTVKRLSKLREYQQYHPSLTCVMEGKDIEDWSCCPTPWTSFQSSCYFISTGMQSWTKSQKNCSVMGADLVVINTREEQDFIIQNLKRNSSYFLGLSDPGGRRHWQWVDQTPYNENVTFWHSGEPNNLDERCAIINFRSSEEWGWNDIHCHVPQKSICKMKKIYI

Molecular target: recombinant His6-tagged extracellular domain of human Clec4C (C-type lectin domain family 4, member C) (human) (UniProt Q8WTT0)
Assay: ELISA screen of periplasmic extracts

B1: 2CL7 (VHH)
VHH: QVQLQESGGGLVQAGDSLRLSCAPSGFTFDGYAIGWFRQAPGKEREKVACINKSDGLTYYEDSVKGRFTISSDTAKNTIHLQMNSLKPDDTAVYYCAAAWECDYAPADFGSWGQGTQVTVSS
- binding: binds
